Source: PMC12670160, “A drug-repurposing screen of FDA- and EMA-approved drugs identifies two NF-κB inhibitors active against eumycetoma” (Journal of Antimicrobial Chemotherapy, 2025)
Structures can show the parent of a compound that is named as a salt. Screen size: about 5,300 compounds; about 130 (2.5%) showed an effect of 50% or more. Some of the results follow.

tested on: M. mycetomatis strain mm55; conditions: primary screen, metabolic activity vs growth control; 96 h, 2 µM; inhibitor

**Q.** With O=C(OCC(O)CO)c1ccccc1Nc1ccnc2cc(Cl)ccc12 (stereo not drawn) [ONC0003171, glafenine] as the molecule, how does the “% viability” value read?
**A.** Its value is 88.45%.

**Q.** With CC(C)(C)CCN1C[C@@H]2[C@@H](CNC(=O)c3cc(Cl)cc(Cl)c3)[C@@H]2C1 [ONC0000926, ml218] as the molecule, how does the “% viability” value read?
**A.** Its value is 81.71%.

**Q.** Which “% viability” value does the source give for OB1OCc2cc(F)ccc21 [ONC0001088, tavaborole] here?
**A.** Its value is 95.25%.

**Q.** With C[C@H](CCC(=O)O)[C@H]1CC[C@H]2[C@@H]3[C@H](O)C[C@@H]4C[C@H](O)CC[C@]4(C)[C@H]3C[C@H](O)[C@]12C [ONC0001951, cholic acid] as the molecule, how does the “% viability” value read?
**A.** The value was 93.81%.

**Q.** C=C1NCC[C@@H](C(=O)O)N1 [ONC0005375, ectoinezwitterion] was tested. Which “% viability” value did it give?
**A.** Its value is 125.4%.

**Q.** CCC(=O)OCC(=O)C1(OC(=O)CC)[C@H](C)C[C@H]2C3[C@H](Cl)CC4=CC(=O)C=C[C@]4(C)[C@H]3[C@@H](O)C[C@@]21C (stereo partly drawn) [ONC0002939, alclometasonedipropionate] was tested. Which “% viability” value did it give?
**A.** Its value is 82.49%.

**Q.** For COc1ccc(CCN(C)CCCN2CCc3cc(OC)c(OC)cc3CC2=O)cc1OC [ONC0000965, zatebradine hydrochloride], which “% viability” value is on record?
**A.** Its value is 95.47%.

**Q.** For COc1ccc(C2(C#N)CCC(C(=O)O)CC2)cc1OC1CCCC1 (stereo not drawn) [ONC0004902, cilomilast sb207499], which “% viability” value is on record?
**A.** The value was 116.1%.

**Q.** Oc1ncnc2[nH]ncc12 [ONC0003233, allopurinol] was tested. Which “% viability” value did it give?
**A.** Its value is 75.66%.

**Q.** How did the “% viability” value turn out when C=C[C@]1(C)C[C@@H](OC(=O)CS[C@@H]2C[C@H]3CC[C@@H](C2)N3C)[C@]2(C)[C@H](C)CC[C@]3(CCC(=O)[C@H]32)[C@@H](C)[C@@H]1O [ONC0004457, retapamulin] was run?
**A.** The value was 126.7%.

**Q.** With COC(=O)c1cccnc1 [ONC0005437, methylnicotinate] as the molecule, how does the “% viability” value read?
**A.** The value was 108.3%.

**Q.** How did the “% viability” value turn out when CC(C)(C)NCC(O)c1cc(Cl)c(N)c(C(F)(F)F)c1 (stereo not drawn) [ONC0002152, mabuterol] was run?
**A.** Its value is 75.72%.

**Q.** With COc1ccccc1C(=O)Nc1cc2c(cc1N1CCCC1)n(C)c(=O)n2C [ONC0003127, pfi4] as the molecule, how does the “% viability” value read?
**A.** The value was 84.15%.

**Q.** How did the “% viability” value turn out when CC(=O)N(O)[C@@H]1c2cc(C#N)ccc2OC(C)(C)[C@H]1O [ONC0004430, y26763] was run?
**A.** The value was 123.9%.

**Q.** How did the “% viability” value turn out when Cc1cc(-c2cc(OC(=O)c3ccccc3)ccc2Cl)cc2nnc(Nc3ccc(OCCN4CCCC4)cc3)nc12 [ONC0002221, tg 100801] was run?
**A.** The value was 68.09%.

**Q.** C=CC(=O)Nc1cccc(C)c1Nc1ncc2cc(-c3c(Cl)c(OC)cc(OC)c3Cl)ccc2n1 [ONC0002060, blu9931] was tested. Which “% viability” value did it give?
**A.** The value was 73.1%.

**Q.** With C[C@]12CCC(=O)C=C1CC[C@@H]1[C@@H]2[C@@H](O)C[C@@]2(C)[C@H]1CC[C@]2(O)C(=O)CO [ONC0003280, hydrocortisone] as the molecule, how does the “% viability” value read?
**A.** The value was 64.75%.

**Q.** For CCOC(=O)C1=C[C@@H](OC(CC)CC)[C@H](NC(C)=O)[C@@H](N)C1 [ONC0003936, oseltamivir phosphate], which “% viability” value is on record?
**A.** Its value is 70.29%.

**Q.** Which “% viability” value does the source give for COC[C@H](NC(=O)c1cnc(C)s1)C(=O)N[C@@H](COC)C(=O)N[C@@H](Cc1ccccc1)C(=O)C1(C)CO1 (stereo partly drawn) [ONC0004389, oprozomib onx 0912] here?
**A.** The value was 101.4%.

**Q.** How did the “% viability” value turn out when O=C(O)CC(O)C(=O)O (stereo not drawn) [ONC0003790, malicacid] was run?
**A.** The value was 84.28%.

**Q.** Which “% viability” value does the source give for CCCCCCC[N+](CC)(CC)CCCCc1ccc(Cl)cc1 [ONC0002316, clofilium] here?
**A.** The value was 77.33%.

**Q.** C=C1C(=O)O[C@@H]2/C=C(\C)CC/C=C(\C)CC[C@@H]12 [ONC0001272, costunolide] was tested. Which “% viability” value did it give?
**A.** Its value is 67.43%.

**Q.** For O=C(O)[C@H](Cc1c[nH]c2ccccc12)N1C(=O)c2ccccc2C1=O [ONC0004497, rg108], which “% viability” value is on record?
**A.** Its value is 69.63%.

**Q.** Which “% viability” value does the source give for O=C(Nc1ccccc1)c1cc([N+](=O)[O-])ccc1Cl [ONC0002683, gw9662] here?
**A.** Its value is 79.43%.

**Q.** With CC1=C(CCC(=O)O)c2cc3[nH]c(cc4nc(cc5[nH]c(cc1n2)c(C)c5C(C)O)C(C)=C4C(C)O)c(C)c3CCC(=O)O (stereo not drawn) [ONC0002122, hematoporphyrin] as the molecule, how does the “% viability” value read?
**A.** Its value is 86.42%.

**Q.** Which “% viability” value does the source give for C[C@H](NC(=O)C(C)(C)Oc1ccc(C(F)(F)F)cn1)[C@@H](Cc1ccc(Cl)cc1)c1cccc(C#N)c1 [ONC0002066, taranabant] here?
**A.** The value was 72.16%.

**Q.** With C[N+]1(CCCCC[N+]2(C)CCCC2)CCCC1 [ONC0002337, pentolinium] as the molecule, how does the “% viability” value read?
**A.** The value was 76.36%.

**Q.** For CCCc1cc(=O)[nH]c(=S)[nH]1 [ONC0000512, propylthiouracil], which “% viability” value is on record?
**A.** Its value is 70.02%.

**Q.** CCCCCCCC[N+](C)(C)Cc1ccccc1 [ONC0005462, benzyldimethyloctylammonium] was tested. Which “% viability” value did it give?
**A.** The value was 89.48%.

**Q.** C[C@@]1(c2nc3c(C(N)=O)cccc3[nH]2)CCCN1 [ONC0004676, abt888 veliparib] was tested. Which “% viability” value did it give?
**A.** The value was 121%.

**Q.** Which “% viability” value does the source give for Cc1onc(-c2ccccc2)c1-c1ccc(S(N)(=O)=O)cc1 [ONC0004800, valdecoxib] here?
**A.** The value was 106.4%.

**Q.** How did the “% viability” value turn out when O=C1c2cccnc2OC[C@@H]2CCCN12 [ONC0001148, org26576] was run?
**A.** Its value is 83.51%.

**Q.** Nc1nc(OCc2ccccc2)c2[nH]cnc2n1 [ONC0002984, o6benzylguanine] was tested. Which “% viability” value did it give?
**A.** The value was 54.08%.

**Q.** For O[C@@H](COc1cccc2ncccc12)CN1CCN([C@@H]2c3ccccc3[C@@H]3[C@H](c4ccccc42)C3(F)F)CC1 [ONC0004604, ly335979 zosuquidar trihydrochloride], which “% viability” value is on record?
**A.** The value was 112.7%.

**Q.** For Cn1cnc(-c2cc3nccc(Oc4ccc(NC(=S)NC(=O)Cc5ccccc5)cc4F)c3s2)c1 [ONC0004601, mgcd265], which “% viability” value is on record?
**A.** Its value is 74.95%.

**Q.** O=c1[nH]c(=O)c2[nH]c(=O)[nH]c2[nH]1 [ONC0003522, uricacid] was tested. Which “% viability” value did it give?
**A.** The value was 130.7%.

**Q.** How did the “% viability” value turn out when COCc1c(-c2ccc(NC(=O)Nc3cc(C(F)(F)F)ccc3F)c(F)c2)c2c(N)ncnn2c1CN1CCOCC1 [ONC0002053, actb1003] was run?
**A.** The value was 73.33%.

**Q.** With CCC(=O)N1CCN(c2ccc(-n3c(=O)ccc4cnc5ccc(-c6cnc7ccccc7c6)cc5c43)cc2C(F)(F)F)CC1 [ONC0004952, torin 1] as the molecule, how does the “% viability” value read?
**A.** Its value is 53.42%.
